These are yes or no findings as the source states them, for the method shown. In cells and extracts the contact can be indirect. Some results given as binding are weak or reduced against the parent protein; the word gives no strength.

Protein sequences, listed by entry. Tags and fused reporters are not part of them.
UniProt P42859: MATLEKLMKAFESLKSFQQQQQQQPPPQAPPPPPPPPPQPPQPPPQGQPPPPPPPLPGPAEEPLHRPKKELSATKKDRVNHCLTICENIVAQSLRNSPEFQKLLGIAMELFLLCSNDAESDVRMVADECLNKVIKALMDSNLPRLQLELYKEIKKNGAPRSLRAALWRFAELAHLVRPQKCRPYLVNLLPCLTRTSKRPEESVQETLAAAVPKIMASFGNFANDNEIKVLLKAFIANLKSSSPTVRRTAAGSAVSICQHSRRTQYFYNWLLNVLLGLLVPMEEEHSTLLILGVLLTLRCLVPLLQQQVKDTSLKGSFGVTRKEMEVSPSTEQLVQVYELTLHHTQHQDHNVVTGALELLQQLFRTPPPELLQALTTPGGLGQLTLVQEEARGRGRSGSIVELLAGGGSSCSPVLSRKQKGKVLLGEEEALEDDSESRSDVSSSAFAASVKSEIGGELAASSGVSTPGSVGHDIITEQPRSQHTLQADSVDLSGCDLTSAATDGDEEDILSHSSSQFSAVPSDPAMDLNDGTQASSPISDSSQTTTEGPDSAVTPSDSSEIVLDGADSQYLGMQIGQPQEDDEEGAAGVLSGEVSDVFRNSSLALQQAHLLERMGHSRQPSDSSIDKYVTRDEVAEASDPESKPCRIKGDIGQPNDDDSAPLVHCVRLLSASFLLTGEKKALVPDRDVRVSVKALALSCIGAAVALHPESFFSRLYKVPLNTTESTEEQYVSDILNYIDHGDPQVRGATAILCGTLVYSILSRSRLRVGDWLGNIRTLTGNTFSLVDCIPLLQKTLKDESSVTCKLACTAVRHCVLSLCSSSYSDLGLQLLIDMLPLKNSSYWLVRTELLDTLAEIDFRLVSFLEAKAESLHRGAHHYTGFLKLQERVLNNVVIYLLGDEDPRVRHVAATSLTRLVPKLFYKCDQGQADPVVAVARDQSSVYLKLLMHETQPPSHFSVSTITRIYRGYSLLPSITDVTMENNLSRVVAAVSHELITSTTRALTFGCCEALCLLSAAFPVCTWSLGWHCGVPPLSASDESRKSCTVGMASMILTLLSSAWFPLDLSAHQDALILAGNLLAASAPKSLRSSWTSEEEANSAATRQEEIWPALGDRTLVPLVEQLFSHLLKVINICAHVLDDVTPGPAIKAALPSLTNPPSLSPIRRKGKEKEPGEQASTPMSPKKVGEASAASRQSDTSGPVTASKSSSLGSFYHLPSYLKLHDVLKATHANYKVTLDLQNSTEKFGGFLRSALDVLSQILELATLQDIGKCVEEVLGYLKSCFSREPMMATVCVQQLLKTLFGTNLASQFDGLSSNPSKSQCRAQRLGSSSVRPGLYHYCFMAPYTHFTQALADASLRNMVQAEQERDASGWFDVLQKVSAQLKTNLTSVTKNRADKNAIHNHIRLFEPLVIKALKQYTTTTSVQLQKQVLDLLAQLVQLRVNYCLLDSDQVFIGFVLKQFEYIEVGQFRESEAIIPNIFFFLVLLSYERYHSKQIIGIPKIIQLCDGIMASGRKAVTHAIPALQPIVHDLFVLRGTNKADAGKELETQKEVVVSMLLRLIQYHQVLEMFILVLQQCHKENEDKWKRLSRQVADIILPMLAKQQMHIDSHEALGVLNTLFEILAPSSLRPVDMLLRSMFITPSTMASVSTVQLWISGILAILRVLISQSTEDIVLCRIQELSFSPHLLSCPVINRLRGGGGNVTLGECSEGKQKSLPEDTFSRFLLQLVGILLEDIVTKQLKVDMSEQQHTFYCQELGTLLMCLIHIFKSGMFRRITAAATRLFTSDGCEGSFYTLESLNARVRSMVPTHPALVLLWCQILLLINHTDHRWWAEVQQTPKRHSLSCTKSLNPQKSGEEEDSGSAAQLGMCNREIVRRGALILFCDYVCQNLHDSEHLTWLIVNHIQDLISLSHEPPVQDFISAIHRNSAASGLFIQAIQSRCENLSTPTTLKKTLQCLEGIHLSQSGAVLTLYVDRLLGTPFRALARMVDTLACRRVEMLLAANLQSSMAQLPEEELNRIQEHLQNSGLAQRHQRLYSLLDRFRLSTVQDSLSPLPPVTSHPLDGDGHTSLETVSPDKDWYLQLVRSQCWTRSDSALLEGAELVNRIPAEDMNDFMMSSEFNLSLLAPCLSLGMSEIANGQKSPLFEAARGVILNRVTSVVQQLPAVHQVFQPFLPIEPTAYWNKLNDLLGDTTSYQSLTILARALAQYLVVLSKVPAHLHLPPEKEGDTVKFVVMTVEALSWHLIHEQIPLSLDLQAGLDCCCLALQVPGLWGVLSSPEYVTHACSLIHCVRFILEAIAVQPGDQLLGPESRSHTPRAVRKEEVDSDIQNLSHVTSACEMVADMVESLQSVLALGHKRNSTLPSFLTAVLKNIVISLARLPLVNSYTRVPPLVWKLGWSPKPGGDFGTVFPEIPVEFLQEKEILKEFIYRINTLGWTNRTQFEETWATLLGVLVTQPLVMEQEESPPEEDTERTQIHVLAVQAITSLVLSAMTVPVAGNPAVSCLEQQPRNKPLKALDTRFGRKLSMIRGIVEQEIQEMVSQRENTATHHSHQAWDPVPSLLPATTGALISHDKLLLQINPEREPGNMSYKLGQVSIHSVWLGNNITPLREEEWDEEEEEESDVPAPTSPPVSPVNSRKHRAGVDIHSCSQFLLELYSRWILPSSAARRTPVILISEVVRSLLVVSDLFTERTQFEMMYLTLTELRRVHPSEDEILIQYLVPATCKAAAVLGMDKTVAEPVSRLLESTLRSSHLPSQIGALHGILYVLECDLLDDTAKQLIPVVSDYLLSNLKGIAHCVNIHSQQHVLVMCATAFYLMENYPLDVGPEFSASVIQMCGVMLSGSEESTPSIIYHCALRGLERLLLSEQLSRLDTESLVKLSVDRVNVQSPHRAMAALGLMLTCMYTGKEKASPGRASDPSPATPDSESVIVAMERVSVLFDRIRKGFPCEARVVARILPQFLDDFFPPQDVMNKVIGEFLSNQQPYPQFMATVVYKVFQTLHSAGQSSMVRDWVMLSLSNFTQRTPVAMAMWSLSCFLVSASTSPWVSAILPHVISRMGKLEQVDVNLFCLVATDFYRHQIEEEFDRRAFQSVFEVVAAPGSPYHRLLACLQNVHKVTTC
UniProt P52480: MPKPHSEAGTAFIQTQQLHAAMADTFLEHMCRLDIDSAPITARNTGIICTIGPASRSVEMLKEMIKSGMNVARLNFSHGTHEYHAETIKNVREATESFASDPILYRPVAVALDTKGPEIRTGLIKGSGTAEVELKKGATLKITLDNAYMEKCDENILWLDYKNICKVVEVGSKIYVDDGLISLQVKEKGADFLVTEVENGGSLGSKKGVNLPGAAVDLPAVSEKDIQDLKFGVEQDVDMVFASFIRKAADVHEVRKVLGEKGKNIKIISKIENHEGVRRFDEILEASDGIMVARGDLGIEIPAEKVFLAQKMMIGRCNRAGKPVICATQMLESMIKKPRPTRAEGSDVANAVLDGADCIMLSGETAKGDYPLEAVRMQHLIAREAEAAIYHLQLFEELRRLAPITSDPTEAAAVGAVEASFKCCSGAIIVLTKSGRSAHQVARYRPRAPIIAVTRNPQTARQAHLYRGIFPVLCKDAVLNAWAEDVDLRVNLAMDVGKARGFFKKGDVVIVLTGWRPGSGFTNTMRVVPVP

In this experiment the target is Htt (wild-type, from wild-type mouse brain) (mouse (endogenous in mouse brain)) (UniProt P42859). Put plainly: co-IP; whole-brain lysates (500 ug, T-PER with protease inhibitors) of wild-type or YAC128 mice; monoclonal Htt antibody (Chemicon 2166) overnight at 4 °C, protein G; washed 5x with TBS/0.05% Tween; Western blots probed for the partners. (Immunoblotting shows a protein as a band on a membrane.)

With “PKM2 (mouse brain) (from UniProt P52480 1-531)”, the binding result is “binds”.

Source of the values: paper PMC1866352.
